Data taken from PMC2362378.

Sequences of proteins named here, by UniProt entry; tags and fusion partners are left off. Residues count along the entry.
UniProt P42224, 2-750: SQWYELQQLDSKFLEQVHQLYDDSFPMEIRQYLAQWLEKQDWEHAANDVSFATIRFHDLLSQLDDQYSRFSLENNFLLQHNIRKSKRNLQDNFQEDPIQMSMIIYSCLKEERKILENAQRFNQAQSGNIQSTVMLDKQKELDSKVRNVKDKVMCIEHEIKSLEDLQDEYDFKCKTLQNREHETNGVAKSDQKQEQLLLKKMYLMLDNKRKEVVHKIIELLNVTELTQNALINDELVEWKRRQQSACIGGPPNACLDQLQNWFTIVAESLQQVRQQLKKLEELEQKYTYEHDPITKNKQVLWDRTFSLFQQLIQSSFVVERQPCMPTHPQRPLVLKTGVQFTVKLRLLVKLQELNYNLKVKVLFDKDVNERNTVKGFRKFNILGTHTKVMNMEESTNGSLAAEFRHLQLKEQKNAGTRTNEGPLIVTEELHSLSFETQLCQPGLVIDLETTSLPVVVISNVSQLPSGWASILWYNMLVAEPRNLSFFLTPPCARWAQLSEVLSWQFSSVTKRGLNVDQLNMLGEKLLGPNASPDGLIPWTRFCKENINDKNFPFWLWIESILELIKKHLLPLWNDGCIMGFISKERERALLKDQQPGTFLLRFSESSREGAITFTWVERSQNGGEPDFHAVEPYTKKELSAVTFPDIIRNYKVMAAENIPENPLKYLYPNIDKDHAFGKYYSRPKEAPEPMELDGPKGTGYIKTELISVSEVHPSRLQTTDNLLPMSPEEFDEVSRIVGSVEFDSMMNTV

Target: Stat1 (IFN-gamma-activated, in cell extract) (UniProt P42224)
Experiment: EMSA
Conditions: 40 mM HEPES pH 7.9, 100 mM NaCl, 2 mM MgCl2, 2 mM DTT, 8% Ficoll, 50 ug/ml poly(dI-dC), 20 ul, room temperature 20 min, 4% gel in 0.25x TBE at 4 C, protein in an extract, label: 32P end label

Measured: binding result

GTGCATTTCCCGTAAATCTTGTCTACA (double strand) [M67-SIE]
binds: A431 extract, IFN-gamma treated (positive control) | PE01 extract, IFN-gamma treated | SKOV-3 extract, IFN-gamma treated, stronger than PE01

Construct, isoform or probe ends are uncertain for at least one entry. At least one result comes from cells or an extract, where the contact may be indirect. At least one verdict was read from the data and is not stated in words by the source.
